Results published in PubChem BioAssay AID540276 (National Center for Advancing Translational Sciences (NCATS), 2011).
The campaign covered roughly 300,000 compounds. About 5,400 (1.8%) were called active. The inconclusive results got no clear call from the source; some entries with a clear call stand among them for comparison. Calls follow the shape of the full dose curve; tested in HEK293 cells. Potencies of inconclusive entries are doubtful fits and often do not repeat.

assay: qHTS for inhibitors of binding or entry into cells for Marburg Virus; settings: Marburg virus pseudotyped entry inhibition, cell reporter; activity change, negative = inhibition: at 37.8 µM (top of the series) unless noted
% is scaled to controls: 0 for no effect and ±100 for the full control effect; potency is read from the fitted curve at half-maximal effect.

| SMILES | Potency | activity change, negative = inhibition |
| --- | --- | --- |
| COc1ccc2cc(C(c3nnnn3Cc3ccc(F)cc3)N3CCCCCC3)c(=O)[nH]c2c1 (centres undefined) | inactive |  |
| COc1cc(NS(=O)(=O)c2ccc(C)cc2C)cc(OC)c1OC | inconclusive: 18.3 µM [inhibitor, partial curve] |  |
| CCCCN1CCNC1=S | inconclusive: 0.891 µM [inhibitor, full curve, poor fit] |  |
| COc1ccc(CN(C)C(=O)C(Cc2ccccc2)NC(=O)c2ccccc2)cc1F (centres undefined) | inconclusive: 25.1 µM [inhibitor, single point] |  |
| CC12CCC(=O)C=C1CCC1C2C(O)CC2(C)C1CCC21OCC1=O (centres undefined) | inconclusive: 15.8 µM [activator, single point] |  |
| Cc1ccccc1NC(=O)CSc1nnc(NC(=O)c2ccco2)s1 |  | inactive: 3.79% |
| O=C(NCC1CCCO1)c1cc(-c2ccccc2)nc2ccccc12 (centres undefined) | inconclusive: 20 µM [inhibitor, partial curve, poor fit] |  |
| COc1ccc(C2(c3ccc(OC)cc3)NC(=O)N(CC(=O)N(C)C3CCC(C)CC3)C2=O)cc1 (centres undefined) | inconclusive: 35.5 µM [inhibitor, single point] |  |
| CC(=O)c1cc2c(cc1NC(=O)Cn1nc(-c3ccc(C)cc3)ccc1=O)OCO2 | inconclusive: 6.31 µM [inhibitor, single point] |  |
| COc1ccc(NC(=O)C(CC(C)C)NC(=O)C2CCCCC2)cc1 (centres undefined) | inconclusive: 5.62 µM [activator, single point] |  |
| CC12CC(NC(=O)N1CCc1ccccc1)c1cc(Cl)ccc1O2 (centres undefined) | inconclusive: 12.6 µM [inhibitor, single point] |  |
| COC(=O)c1cc(Nc2cc(C)c3ccc(O)cc3n2)cc(C(=O)OC)c1 |  | inactive: -15.3% |
| Cn1ccnc1C(O)c1cc(C(C)(C)C)c(O)c(C(C)(C)C)c1 (centres undefined) |  | inactive: -25.1% |
| CN(Cc1ccccc1)C(=O)COC(=O)c1ccccc1NS(=O)(=O)c1cccc(N)c1 |  | inactive: -5.58% |
| CC(C)(C)C(=O)COC(=O)CCc1nc2ccccc2[nH]c1=O |  | inactive: -2.61% [at 46.1 µM] |
| COc1ccc(NC(=O)CN2CCCC(C)C2)c([N+](=O)[O-])c1 (centres undefined) | inconclusive: 0.517 µM [inhibitor, full curve, poor fit] |  |
| Clc1ccc(/C=N/N2CCN(Cc3ccccc3Cl)CC2)cc1 |  | inactive: 25.8% [at 46.1 µM] |
| NS(=O)(=O)c1ccc(Nc2nc(-c3ccc4ccccc4c3)cs2)cc1 |  | inactive: -11.1% |
| Cc1ccc(C(C(=O)NCC2CCCO2)N(C(=O)c2snc(C(N)=O)c2N)c2ccccc2F)o1 (centres undefined) | inconclusive: 11.2 µM [inhibitor, single point] |  |
| Cc1cc(NCc2ccccn2)nc2ccccc12 |  | inactive: -2.34% |
| O=C(NNC(=O)c1ccccc1Br)c1cccs1 | inconclusive: 3.55 µM [activator, partial curve, poor fit] |  |
| N/C(=N\NC(=O)c1cccs1)c1cc2ccccc2oc1=O | inconclusive: 3.98 µM [activator, partial curve, poor fit] |  |
| Cc1ccccc1CSc1nnnn1-c1ccc(C(N)=O)cc1 | inconclusive: 0.316 µM [activator, partial curve, poor fit] |  |

| SMILES | Potency | activity change, negative = inhibition |
| --- | --- | --- |
| O=C(Nc1ccc(N=Nc2ccccc2)cc1)c1ccccc1Cl | inconclusive: 0.1 µM [activator, full curve, poor fit] |  |
| CCN1CN(Cc2ccccc2)CNC1=S | inconclusive: 5.01 µM [activator, single point] |  |
| O=CN(CCN(C=O)CN1CCCCC1)CN1CCCCC1 |  | inactive: -6.54% |
| COc1ccc(/C=N/NS(C)(=O)=O)c(OC)c1 | inconclusive: 31.6 µM [activator, partial curve, poor fit] |  |
| Cn1cc(C(=O)C(F)(F)F)c2ccccc21 |  | inactive: 13.1% |
| CCOC(=O)C1=C(C)N(C)C(=S)NC1c1ccc(Cl)cc1Cl (centres undefined) | inconclusive: 11.2 µM [inhibitor, single point] |  |
| CCN(CC(=O)Nc1ccc(NC(C)=O)cc1)C(=O)C1CCCC1 | inconclusive: 1.41 µM [inhibitor, partial curve, poor fit] |  |
| OCCCCNCc1ccc(OCc2ccccc2Cl)cc1 | inconclusive: 18.3 µM [inhibitor, single point] |  |
| O=C(CSc1ncnc2ccccc12)NCC(=O)c1ccccc1 |  | inactive: -28.5% [at 46.1 µM] |
| CCN(CC)CCNC(=O)c1cc(Nc2ccc(OC)c(OC)c2)nc2ccccc12 | inconclusive: 10 µM [inhibitor, partial curve, poor fit] |  |
| COc1ccc(C(=O)Nc2scc(-c3ccc(Cl)cc3Cl)c2C(N)=O)cc1 |  | inactive: -14% |
| COc1ccc(OC)c(S(=O)(=O)NCc2nc3nc(C)cc(C)n3n2)c1 | inconclusive: 0.631 µM [activator, partial curve, poor fit] |  |
| COc1ccc(N2CC(C(=O)N(C)CC(=O)Nc3ccc(Cl)c(C(F)(F)F)c3)CC2=O)c(OC)c1 (centres undefined) | inconclusive: 11.2 µM [inhibitor, partial curve] |  |
| COc1ccc(-c2cc(-c3ccccc3O)[nH]n2)cc1 | inconclusive: 1.26 µM [activator, single point] |  |
| COc1ccc(Cl)cc1NC(=O)C1CCCN(S(=O)(=O)c2cccc3nonc23)C1 (centres undefined) | inconclusive: 11.2 µM [activator, partial curve, poor fit] |  |
| COc1ccccc1C(c1nnnn1Cc1ccccc1)N1CCN(c2nc3ccccc3s2)CC1 (centres undefined) | inconclusive: 12.6 µM [inhibitor, partial curve, poor fit] |  |
| CCOc1ccccc1N1C(=O)NC(=O)/C(=C/c2ccc3c4c(cccc24)CC3)C1=O |  | inactive: 1.84% |
| COc1ccc2cc(/C(C)=N/NC(=O)C3CC3)ccc2c1 |  | inactive: 19.6% [at 46.1 µM] |
| COc1ccc(/C=N/NC(=O)CNC(=O)COc2ccccc2)cc1 | inconclusive: 22.4 µM [activator, partial curve, poor fit] |  |
| CCCOc1ccc(C2NC(=S)NC(c3ccccc3)=C2C(=O)Nc2ccc(C)cc2)cc1OC (centres undefined) | inconclusive: 20 µM [inhibitor, single point] |  |
| COc1cccc(-n2nnnc2SCC(=O)NCc2ccco2)c1 |  | inactive: -2.69% [at 46.1 µM] |
| COc1ccc(-c2nc(CN3C(=O)CN=C(c4ccccc4)c4cc(Cl)ccc43)c(C)o2)cc1 | inconclusive: 6.31 µM [activator, single point] |  |
| CC1(c2cccc(Br)c2)NC(=O)N(CC(=O)Nc2ccc(F)cc2)C1=O (centres undefined) | inconclusive: 8.91 µM [inhibitor, partial curve, poor fit] |  |

| SMILES | Potency | activity change, negative = inhibition |
| --- | --- | --- |
| O=C(CSc1nnc(NC(=O)c2cccc(F)c2)s1)NCC1CCCO1 (centres undefined) | inconclusive: 20 µM [activator, single point] |  |
| O=C(NCc1ccccn1)c1ccco1 |  | inactive: -3.16% [at 46.1 µM] |
| CCCNC(=O)Cn1cnc2sc(C(=O)N3CCCC(C(=O)OCC)C3)c(C)c2c1=O (centres undefined) | inconclusive: 0.891 µM [activator, single point] |  |
| C#CC(C)(O)C1CC(CC(=O)O)C1(C)C (centres undefined) |  | inactive: 0.766% [at 46.1 µM] |
| CCOc1ccc(Br)cc1/C(C)=N\NC1=NCCN1 | inconclusive: 11.2 µM [inhibitor, partial curve, poor fit] |  |
| CCOc1ccc(NC(=O)CCC(=O)NNC(=O)c2ccco2)cc1 | inconclusive: 31.6 µM [activator, partial curve, poor fit] |  |
| COCCNC(=O)Cn1cc(S(=O)(=O)N2CCN(c3ccccc3F)CC2)c2ccccc2c1=O |  | inactive: -3.79% |
| Cc1nn(CCOc2ccccc2)c(=O)n1-c1ccccc1 | inconclusive: 6.51 µM [activator, single point] |  |
| O=C(Cn1ccc([N+](=O)[O-])n1)NCc1ccccc1 | inconclusive: 0.112 µM [inhibitor, full curve, poor fit] |  |
| CC1CCCC(NC(=O)c2ccc3c(=O)n(CC4CCCO4)c(=O)[nH]c3c2)C1C (centres undefined) | inconclusive: 3.55 µM [activator, single point] |  |
| O=C(Nc1ccc(F)cc1F)c1ccccc1NC(=O)C1CC=CCC1C(=O)O (centres undefined) | inconclusive: 31.6 µM [activator, single point] |  |
| CC(C)(C)c1csc(NNC(=O)c2ccc(Br)cc2)n1 | inconclusive: 35.5 µM [inhibitor, single point] |  |
| CCOC(=O)N1CCN(S(=O)(=O)/C=C/c2ccccc2)CC1 | inconclusive: 0.146 µM [inhibitor, full curve, poor fit] |  |
| Cc1cc(C)c(S(=O)(=O)Nc2ccc3oc4c(c3c2)C(=O)CC(C)(C)C4)cc1C | inconclusive: 35.5 µM [inhibitor, single point] |  |
| O=c1c2ccccc2nnn1CSc1nc2ccccc2c(=O)n1Cc1ccco1 | inconclusive: 11.6 µM [inhibitor, partial curve, poor fit] |  |
| COc1cccc(NC(=O)CCc2c(C)nc3ncnn3c2C)c1 | inconclusive: 17.8 µM [activator, single point] |  |
| Cc1noc(C)c1CSc1nc2ccccc2nc1NS(=O)(=O)c1ccc(Cl)cc1 | inconclusive: 35.5 µM [inhibitor, single point] |  |
| CC(C)Cc1cc(C(=O)N2N=C(C(F)F)CC2(O)C(F)F)c2ccccc2n1 (centres undefined) |  | inactive: -29.5% |
| COc1ccc(N(Cc2cccs2)C(=O)Nc2cccc(Cl)c2)cc1 |  | inactive: -18.2% [at 46.1 µM] |
| CN(C)c1ccc(/C=N/NC(=O)CCC(=O)NCc2ccccc2)cc1 |  | inactive: 1.73% |
| CCOC(=O)C1CCCN(S(=O)(=O)c2ccc3c(c2)oc(=O)n3C)C1 (centres undefined) |  | inactive: -17.9% [at 46.1 µM] |
| C/C(CCN1CCCc2nc(C)c(C)cc21)=N\OC[C@@H](O)[C@H]1O[C@@H]2OC(C)(C)O[C@@H]2[C@H]1O |  | inactive: -8.49% [at 14.2 µM] |
| Cc1c(C(=O)N2CCOCC2)sc(NC(=O)c2ccc3c(c2)OCO3)c1C#N | inconclusive: 3.26 µM [activator, full curve] |  |

An excerpt taken from the entries so far:

| SMILES | Potency | activity change, negative = inhibition |
| --- | --- | --- |
| COc1ccc(N(Cc2cccs2)C(=O)Nc2cccc(Cl)c2)cc1 |  | inactive: -18.2% [at 46.1 µM] |
| CN(C)c1ccc(/C=N/NC(=O)CCC(=O)NCc2ccccc2)cc1 |  | inactive: 1.73% |
| CCOC(=O)C1CCCN(S(=O)(=O)c2ccc3c(c2)oc(=O)n3C)C1 (centres undefined) |  | inactive: -17.9% [at 46.1 µM] |
